± gives the standard deviation of the averaged measurements. Only a part is listed here, and it is no random draw. Most values lie at the level of the controls, where differences are scatter.
Each target was assayed with Nc1ncnc2c1ncn2[C@@H]1O[C@H](COP(=O)(O)OP(=O)(O)NP(=O)(O)O)[C@@H](O)[C@H]1O [adenylyl imidodiphosphate] (assay: NP40-soluble protein abundance relative to vehicle (solubility fold change) (ratio); higher = more soluble protein in presence of AMP-PNP). Details: concentration: 0.1mM.
Outline: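 Eight concentrations, 0.1 to 10 mM, were tested on Jurkat crude lysate for 10 min at room temperature and then 3 min at 37 °C, in three independent experiments. The lysate was solubilised with 0.8% NP40 and benzonase, ultracentrifuged, and the supernatant TMT-labelled for LC-MS/MS. Each value is the fold change against the detergent-processed vehicle in its own replicate, from vsn-normalised intensities.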

Protein sequences, listed by entry. Tags and fused reporters are not part of them. Lines headed by an entry give the natural chain unless they say otherwise; changes in a name come on top.
UniProt Q86T24: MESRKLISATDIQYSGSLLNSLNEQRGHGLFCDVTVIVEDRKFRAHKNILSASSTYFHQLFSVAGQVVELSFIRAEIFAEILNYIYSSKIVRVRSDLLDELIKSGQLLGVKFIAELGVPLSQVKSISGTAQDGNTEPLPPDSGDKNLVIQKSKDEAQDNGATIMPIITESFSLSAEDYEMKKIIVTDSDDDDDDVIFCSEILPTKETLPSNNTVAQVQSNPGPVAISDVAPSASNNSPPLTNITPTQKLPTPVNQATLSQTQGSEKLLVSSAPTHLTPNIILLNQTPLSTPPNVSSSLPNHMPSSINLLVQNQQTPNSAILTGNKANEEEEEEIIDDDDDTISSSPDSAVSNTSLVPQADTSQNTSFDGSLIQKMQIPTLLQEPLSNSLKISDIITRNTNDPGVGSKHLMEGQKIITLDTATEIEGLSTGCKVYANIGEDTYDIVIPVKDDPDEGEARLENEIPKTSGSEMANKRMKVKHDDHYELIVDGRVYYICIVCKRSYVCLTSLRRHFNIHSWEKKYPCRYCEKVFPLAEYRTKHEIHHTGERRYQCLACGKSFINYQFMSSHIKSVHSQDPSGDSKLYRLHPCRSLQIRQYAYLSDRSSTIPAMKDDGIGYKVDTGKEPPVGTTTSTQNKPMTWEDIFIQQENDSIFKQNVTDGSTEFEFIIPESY
UniProt Q8N5C7: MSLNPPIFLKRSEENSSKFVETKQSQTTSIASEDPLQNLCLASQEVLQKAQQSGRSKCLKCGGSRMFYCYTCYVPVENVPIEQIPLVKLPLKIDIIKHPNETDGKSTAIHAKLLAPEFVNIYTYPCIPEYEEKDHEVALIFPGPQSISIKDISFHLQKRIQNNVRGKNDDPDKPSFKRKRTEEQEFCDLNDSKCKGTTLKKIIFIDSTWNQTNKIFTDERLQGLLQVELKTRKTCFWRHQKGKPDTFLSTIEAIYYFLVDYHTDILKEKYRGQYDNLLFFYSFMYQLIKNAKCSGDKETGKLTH
UniProt Q8N0X7: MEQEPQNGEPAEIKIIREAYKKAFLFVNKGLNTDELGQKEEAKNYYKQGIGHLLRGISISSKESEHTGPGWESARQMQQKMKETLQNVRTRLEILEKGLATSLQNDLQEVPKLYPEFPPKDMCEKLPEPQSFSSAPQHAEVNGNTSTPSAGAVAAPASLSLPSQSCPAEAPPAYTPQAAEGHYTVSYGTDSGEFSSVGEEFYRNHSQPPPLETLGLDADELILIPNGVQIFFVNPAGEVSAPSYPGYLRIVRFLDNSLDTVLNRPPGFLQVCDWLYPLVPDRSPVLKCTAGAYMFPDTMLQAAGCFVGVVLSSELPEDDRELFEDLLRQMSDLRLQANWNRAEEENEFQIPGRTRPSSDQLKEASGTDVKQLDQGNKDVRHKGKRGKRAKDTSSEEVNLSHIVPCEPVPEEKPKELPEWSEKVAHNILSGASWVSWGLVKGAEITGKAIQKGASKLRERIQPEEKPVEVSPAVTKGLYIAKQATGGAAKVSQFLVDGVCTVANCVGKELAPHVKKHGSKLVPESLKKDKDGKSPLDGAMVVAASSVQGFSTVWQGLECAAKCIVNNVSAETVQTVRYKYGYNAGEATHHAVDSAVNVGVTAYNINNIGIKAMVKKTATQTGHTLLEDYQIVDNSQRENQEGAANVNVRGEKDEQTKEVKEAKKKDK
UniProt Q86U42: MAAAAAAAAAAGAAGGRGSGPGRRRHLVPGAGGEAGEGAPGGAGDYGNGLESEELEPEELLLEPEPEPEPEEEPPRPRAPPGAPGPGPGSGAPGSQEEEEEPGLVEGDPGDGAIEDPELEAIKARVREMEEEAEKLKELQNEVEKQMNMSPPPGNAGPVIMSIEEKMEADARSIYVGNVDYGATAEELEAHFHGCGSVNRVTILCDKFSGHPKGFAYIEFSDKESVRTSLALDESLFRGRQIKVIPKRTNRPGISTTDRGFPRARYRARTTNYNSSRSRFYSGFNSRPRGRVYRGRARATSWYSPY
UniProt Q8N1G2: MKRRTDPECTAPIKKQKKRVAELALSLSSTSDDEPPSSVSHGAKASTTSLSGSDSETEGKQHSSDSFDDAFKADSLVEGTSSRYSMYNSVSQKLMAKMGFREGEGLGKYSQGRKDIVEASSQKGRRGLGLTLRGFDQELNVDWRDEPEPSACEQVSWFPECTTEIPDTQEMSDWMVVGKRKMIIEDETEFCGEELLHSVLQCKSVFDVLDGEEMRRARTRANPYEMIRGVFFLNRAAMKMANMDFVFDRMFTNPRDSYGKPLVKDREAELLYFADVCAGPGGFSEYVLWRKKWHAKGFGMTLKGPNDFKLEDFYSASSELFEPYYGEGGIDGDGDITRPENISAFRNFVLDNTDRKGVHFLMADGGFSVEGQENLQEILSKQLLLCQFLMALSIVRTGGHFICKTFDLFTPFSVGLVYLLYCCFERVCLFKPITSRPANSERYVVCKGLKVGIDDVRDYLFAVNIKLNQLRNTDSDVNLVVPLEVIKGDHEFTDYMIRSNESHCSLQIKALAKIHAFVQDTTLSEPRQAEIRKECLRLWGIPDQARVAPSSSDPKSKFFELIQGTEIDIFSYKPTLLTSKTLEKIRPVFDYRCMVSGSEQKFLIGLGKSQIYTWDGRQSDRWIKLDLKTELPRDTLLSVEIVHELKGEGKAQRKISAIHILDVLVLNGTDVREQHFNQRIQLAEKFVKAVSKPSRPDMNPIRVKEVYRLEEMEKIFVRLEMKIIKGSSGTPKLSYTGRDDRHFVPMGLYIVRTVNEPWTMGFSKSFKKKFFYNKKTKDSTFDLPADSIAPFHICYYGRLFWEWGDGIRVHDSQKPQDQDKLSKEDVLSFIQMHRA
UniProt Q8IUF8: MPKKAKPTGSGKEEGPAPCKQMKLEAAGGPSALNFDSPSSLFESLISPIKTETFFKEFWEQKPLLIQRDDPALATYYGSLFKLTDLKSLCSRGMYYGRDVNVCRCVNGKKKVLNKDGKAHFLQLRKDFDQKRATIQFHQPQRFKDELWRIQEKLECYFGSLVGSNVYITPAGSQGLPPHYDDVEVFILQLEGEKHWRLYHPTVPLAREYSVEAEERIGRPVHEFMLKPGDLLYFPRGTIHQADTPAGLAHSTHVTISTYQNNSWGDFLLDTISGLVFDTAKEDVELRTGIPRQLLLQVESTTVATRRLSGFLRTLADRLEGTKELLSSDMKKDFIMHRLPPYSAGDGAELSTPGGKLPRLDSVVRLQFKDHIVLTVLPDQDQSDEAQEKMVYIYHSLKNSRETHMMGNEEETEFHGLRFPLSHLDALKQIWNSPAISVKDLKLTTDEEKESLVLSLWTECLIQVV
UniProt Q8IV08: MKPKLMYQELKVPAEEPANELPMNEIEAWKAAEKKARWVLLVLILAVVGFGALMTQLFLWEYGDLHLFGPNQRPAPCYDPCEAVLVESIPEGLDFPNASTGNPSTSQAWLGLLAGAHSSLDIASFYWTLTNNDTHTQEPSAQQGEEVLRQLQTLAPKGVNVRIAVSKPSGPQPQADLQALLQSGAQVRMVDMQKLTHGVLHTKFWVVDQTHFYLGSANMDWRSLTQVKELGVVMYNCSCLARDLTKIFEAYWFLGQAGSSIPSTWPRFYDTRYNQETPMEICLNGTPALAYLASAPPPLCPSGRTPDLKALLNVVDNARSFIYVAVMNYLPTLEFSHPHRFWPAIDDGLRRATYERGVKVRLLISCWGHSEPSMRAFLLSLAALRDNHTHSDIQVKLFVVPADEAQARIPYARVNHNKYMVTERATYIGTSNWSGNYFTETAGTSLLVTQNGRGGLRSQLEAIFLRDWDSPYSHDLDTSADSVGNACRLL
UniProt Q8N668, whole entry: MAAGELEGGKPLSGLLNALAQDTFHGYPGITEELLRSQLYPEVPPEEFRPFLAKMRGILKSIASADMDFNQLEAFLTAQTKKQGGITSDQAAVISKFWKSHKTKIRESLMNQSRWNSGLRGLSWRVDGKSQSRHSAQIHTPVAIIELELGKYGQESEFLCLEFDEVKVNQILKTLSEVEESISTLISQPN
UniProt Q86UA6: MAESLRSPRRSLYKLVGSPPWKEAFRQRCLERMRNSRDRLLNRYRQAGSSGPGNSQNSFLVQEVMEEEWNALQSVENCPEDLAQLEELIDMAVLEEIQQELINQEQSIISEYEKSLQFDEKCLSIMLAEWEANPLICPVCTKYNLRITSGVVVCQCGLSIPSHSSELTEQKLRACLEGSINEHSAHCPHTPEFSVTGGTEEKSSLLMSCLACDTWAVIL
UniProt Q7Z7H5: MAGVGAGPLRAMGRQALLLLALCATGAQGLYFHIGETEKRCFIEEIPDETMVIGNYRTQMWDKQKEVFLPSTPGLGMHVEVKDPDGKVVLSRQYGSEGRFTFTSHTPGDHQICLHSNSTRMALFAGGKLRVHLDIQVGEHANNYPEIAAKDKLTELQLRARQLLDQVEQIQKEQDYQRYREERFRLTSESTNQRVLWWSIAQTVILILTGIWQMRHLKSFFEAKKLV
UniProt Q8IZ83: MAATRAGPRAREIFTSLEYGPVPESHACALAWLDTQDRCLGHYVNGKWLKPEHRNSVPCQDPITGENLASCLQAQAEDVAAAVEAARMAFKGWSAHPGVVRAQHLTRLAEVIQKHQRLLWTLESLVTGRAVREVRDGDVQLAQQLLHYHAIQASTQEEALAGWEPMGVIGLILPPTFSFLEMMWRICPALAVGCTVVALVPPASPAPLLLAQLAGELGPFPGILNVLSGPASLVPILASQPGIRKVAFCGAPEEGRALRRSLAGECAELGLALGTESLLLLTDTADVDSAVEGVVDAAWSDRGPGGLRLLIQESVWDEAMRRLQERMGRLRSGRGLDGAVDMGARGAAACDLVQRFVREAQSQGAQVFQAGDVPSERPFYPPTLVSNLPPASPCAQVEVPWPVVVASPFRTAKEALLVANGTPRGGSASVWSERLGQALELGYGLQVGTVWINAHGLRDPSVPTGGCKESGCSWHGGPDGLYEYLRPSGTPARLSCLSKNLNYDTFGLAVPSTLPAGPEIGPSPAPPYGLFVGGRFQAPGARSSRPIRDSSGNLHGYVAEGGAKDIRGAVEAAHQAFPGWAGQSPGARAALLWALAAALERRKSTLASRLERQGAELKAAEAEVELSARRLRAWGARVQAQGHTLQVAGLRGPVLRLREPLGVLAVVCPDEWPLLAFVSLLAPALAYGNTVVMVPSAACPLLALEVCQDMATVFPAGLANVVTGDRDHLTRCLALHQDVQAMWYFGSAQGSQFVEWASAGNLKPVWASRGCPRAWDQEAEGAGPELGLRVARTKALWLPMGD
UniProt Q8IXI1, whole entry, looked up: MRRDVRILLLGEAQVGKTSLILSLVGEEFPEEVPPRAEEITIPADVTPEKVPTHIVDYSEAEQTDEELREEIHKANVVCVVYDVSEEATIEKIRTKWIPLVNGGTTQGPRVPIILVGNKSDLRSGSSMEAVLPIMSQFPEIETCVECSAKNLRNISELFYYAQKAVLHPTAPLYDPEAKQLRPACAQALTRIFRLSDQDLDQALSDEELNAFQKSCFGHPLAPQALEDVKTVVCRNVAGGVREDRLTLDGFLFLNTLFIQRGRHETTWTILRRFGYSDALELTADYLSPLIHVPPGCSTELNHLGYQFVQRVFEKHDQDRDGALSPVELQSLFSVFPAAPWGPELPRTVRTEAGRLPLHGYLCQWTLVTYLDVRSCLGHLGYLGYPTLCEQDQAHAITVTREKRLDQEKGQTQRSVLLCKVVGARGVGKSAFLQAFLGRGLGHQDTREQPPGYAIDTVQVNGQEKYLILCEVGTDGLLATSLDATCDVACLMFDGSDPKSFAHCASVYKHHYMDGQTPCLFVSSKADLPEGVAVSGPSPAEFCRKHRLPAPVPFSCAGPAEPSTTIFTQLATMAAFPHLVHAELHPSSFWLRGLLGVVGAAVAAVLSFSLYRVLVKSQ
UniProt Q8IYD1, whole entry: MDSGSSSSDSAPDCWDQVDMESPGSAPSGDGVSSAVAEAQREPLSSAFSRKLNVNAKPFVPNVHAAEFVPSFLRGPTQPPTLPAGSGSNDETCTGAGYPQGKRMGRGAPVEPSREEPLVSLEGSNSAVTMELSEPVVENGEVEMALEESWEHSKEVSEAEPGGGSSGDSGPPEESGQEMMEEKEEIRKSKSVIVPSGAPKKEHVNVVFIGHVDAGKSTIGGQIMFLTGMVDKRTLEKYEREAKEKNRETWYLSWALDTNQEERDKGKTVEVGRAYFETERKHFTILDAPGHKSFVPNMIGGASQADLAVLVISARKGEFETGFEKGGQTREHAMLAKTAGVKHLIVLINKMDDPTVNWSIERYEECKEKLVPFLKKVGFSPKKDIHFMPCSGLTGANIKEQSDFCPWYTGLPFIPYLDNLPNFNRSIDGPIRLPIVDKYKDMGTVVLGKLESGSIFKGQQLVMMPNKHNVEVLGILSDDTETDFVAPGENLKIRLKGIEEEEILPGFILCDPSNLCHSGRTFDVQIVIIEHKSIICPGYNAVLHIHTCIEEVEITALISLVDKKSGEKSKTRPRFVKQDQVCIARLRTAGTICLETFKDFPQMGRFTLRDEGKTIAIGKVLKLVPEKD

Target | NP40-soluble protein abundance
NKAP (UniProt Q8N5F7) | 0.991 ± 0.012
ZBTB33 (UniProt Q86T24) | 0.987 ± 0.024
UniProt Q8N5C7 and related entries | 1.03 ± 0.013
UniProt Q8N0X7 | 0.945 ± 0.055
UniProt Q86U42 and related entries | 0.976 ± 0.024
UniProt Q8IY95 and related entries | 0.989 ± 0.034
UniProt Q8N1G2 | 1.01 ± 0.052
GPR180 (UniProt Q86V85) | 0.939 ± 0.01
UniProt Q8IUF8 and related entries | 1.01 ± 0.018
PLD3 (UniProt Q8IV08) | 0.962 ± 0.025
UniProt Q8IWD4 and related entries | 0.985 ± 0.017
UniProt Q86X95 | 0.9639 ± 0.0095
GUF1 (UniProt Q8N442) | 1.01 ± 0.055
UniProt Q8NBL1 | 0.997 ± 0.019
DCP1B (UniProt Q8IZD4) | 1.01 ± 0.015
AACS (UniProt Q86V21) | 0.979 ± 0.026
UniProt Q8N573 and related entries | 0.964 ± 0.025
COMMD1 (UniProt Q8N668) | 0.952 ± 0.043
UniProt Q86UA6 and related entries | 0.9817 ± 0.005
UniProt Q8NBN3 and related entries | 0.979 ± 0.024
ANKMY2 (UniProt Q8IV38) | 0.9686 ± 0.0057
TMED4 (UniProt Q7Z7H5) | 1 ± 0.04
UniProt Q86X83 and related entries | 1.03 ± 0.017
UniProt Q8IZ83 and related entries | 1.02 ± 0.031
UniProt Q8IUX7 | 0.968 ± 0.033
RHOT2 (UniProt Q8IXI1) | 1.009 ± 0.0039
GSPT2 (UniProt Q8IYD1) | 1.02 ± 0.068
UniProt Q7Z7F0 | 0.995 ± 0.083

2 records drawn at random from those above:
Target | NP40-soluble protein abundance
ZBTB33 (UniProt Q86T24) | 0.987 ± 0.024
DCP1B (UniProt Q8IZD4) | 1.01 ± 0.015
